This is one part of the list. Shown are side measurements of this screen, not its main read-out; they come without a call. The list favours compounds with an active or inconclusive main result. The note in brackets gives the kind of curve behind each potency; many fits are weak.
Assay: IkB Signaling
Details: ABC-DLBCL IkBa-CBG/CBR dual luciferase ratio (green luciferase fused to IkBa over red control in OCI-Ly3 lymphoma cells), 4 h
Outline: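 In this assay, an IκBα–CBG68 fusion accumulates when IKK-driven degradation is blocked; native CBR normalizes for cell number. OCI-Ly3 cells were treated 4 h with compound and doxycycline, then green and red light read after Chroma-Glo addition.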

[1] = measured here: control luc red channel unless noted
[2] = measured here: IkB-luc green channel
[3] = measured here: control luc red channel

Cc1ccc(S(=O)(=O)N2CCN(C(=O)CSc3nc4ccccc4c(=O)[nH]3)CC2)c(C)c1
AC50 [1]: 31.6 µM [falling, partial curve]

CCOC(=O)N1CCc2c(sc3c2c(=O)n(Cc2ccccc2)c(=O)n3Cc2ccc(C)cc2)C1
AC50 [1]: 12.6 µM [falling, single point]

Cc1ccc(-c2noc(C3CCN(C(=O)Nc4ccc(C#N)cc4)CC3)n2)o1
AC50 [1]: 39.8 µM [falling, single point]

CCOc1ccccc1CNC(=O)c1ccc(Cn2c(SCc3ccccc3)nc3cccnc32)cc1
AC50 [1]: 10 µM [falling, partial curve]

N#CC1=C2SCC(O)(c3ccccc3)N2C(=O)CC1c1cccs1 (stereo unspecified)
AC50 [1]: 5.01 µM [falling, partial curve]

Cc1cc(C)c2nc(NC(=O)c3ccc(S(=O)(=O)N4CCC(C)CC4)cc3)sc2c1
AC50 [1]: 0.316 µM [falling, full curve, poor fit]

CC(C)OC(=O)/C(C#N)=C/c1ccc(-c2ccc(Cl)c(Cl)c2)o1
AC50 [1]: 6.31 µM [rising, single point]

CCOC(=O)c1ccc(NC(=O)CC2C(=O)N(c3ccc(F)cc3)C(=O)N2Cc2ccc(C)cc2)cc1 (stereo unspecified)
AC50 [1]: 15.8 µM [falling, single point]

COc1ccc(Nc2cc(C(=O)NCCCN(C)Cc3ccccc3)c3ccccc3n2)cc1
AC50 [1]: 15.8 µM [falling, partial curve]

CCOC(=O)c1ccccc1NC(=O)CSc1nnc(Cc2cccn2C)n1-c1ccc(C)cc1
AC50 [1]: 31.6 µM [falling, partial curve]

CCOc1cc(C2Sc3ccccc3NC3=C2C(=O)c2ccccc23)ccc1O (stereo unspecified)
AC50 [1]: 39.8 µM [falling, single point]

COc1ccc(C(=O)Nc2ccccc2-c2nc3ccccc3s2)c(OC)c1
AC50 [1]: 0.316 µM [falling, full curve, poor fit]

CCOC(=O)c1cnc2ccc(Cl)cc2c1Nc1ccc(OCC)cc1
AC50 [1]: 31.6 µM [falling, single point]

COc1ccc(-c2nc(C#N)c(NCc3ccc(F)cc3)o2)cc1OC
AC50 [1]: 20 µM [falling, single point]

CC(C)OCCCNC(=O)CSc1c2c(nc3ccc(Cl)cc13)CCCC2
AC50 [2]: 12.6 µM [rising, partial curve]
AC50 [3]: 12.6 µM [falling, partial curve]

COc1cccc(-c2nc3c(c(SCC(=O)Nc4cc(C)ccc4C)n2)Cc2c(CO)cnc(C)c2O3)c1
AC50 [1]: 0.0158 µM [rising, full curve]

CC(=O)c1ccc(NC(=O)CCc2nc(-c3ccc(C)cc3)no2)cc1
AC50 [1]: 25.1 µM [falling, partial curve]

CC(=O)c1ccc(NC(=O)CSc2nc(C3CCCC3)nc3c2c(=O)n(C)c(=O)n3C)cc1
AC50 [1]: 15.8 µM [falling, partial curve]

Cc1c(NC(=O)c2ccc(Br)o2)cccc1-c1nc2ccccc2o1
AC50 [1]: 1 µM [falling, full curve, poor fit]

CCCSc1nc2sc3c(c2c(=O)n1-c1cccc(Br)c1)CC(C)(C)OC3
AC50 [1]: 3.16 µM [rising, single point]

Cc1ccccc1Cn1c(SCc2ccc(C(=O)NC3CCCC3)cc2)nc2ccncc21
AC50 [1]: 39.8 µM [falling, partial curve]

CC(=O)Nc1ccc(Nc2ncnc3c2c(-c2ccccc2)cn3-c2ccc(C)c(Cl)c2)cc1
AC50 [1]: 3.16 µM [falling, full curve]

COc1ccccc1N=c1scc(-c2ccc(S(=O)(=O)N3CCCC3)cc2)n1C
AC50 [1]: 3.16 µM [falling, full curve]

COc1ccccc1CNC(=O)CCNS(=O)(=O)c1cccc2nsnc12
AC50 [1]: 3.16 µM [falling, single point]

COc1cccc(NC(=O)N2CCN(C(=O)c3nsc4ccccc34)CC2)c1
AC50 [1]: 15.8 µM [falling, single point]

Cc1nc2c(c(C)nn2-c2ccccc2)c(C)c1CCC(=O)NCCc1ccc(Cl)cc1
AC50 [1]: 7.94 µM [falling, full curve]

Fc1ccc(N2CCN(Cc3cccn3-c3nnc(N4CCN(C5CCCCC5)CC4)s3)CC2)cc1
AC50 [1]: 39.8 µM [falling, single point]

Cc1ccc(NC(=O)C2CCCN(c3cnccn3)C2)c(C)c1 (stereo unspecified)
AC50 [1]: 0.158 µM [rising, full curve, poor fit]

CCc1ccccc1NC(=O)c1cc2c(Cl)nc3ccccc3c2s1
AC50 [1]: 39.8 µM [falling, single point]

COc1cc2[nH]c(=O)n(CCCCCC(=O)N3CCN(c4ccc(Cl)cc4)CC3)c(=O)c2cc1OC
AC50 [2]: 39.8 µM [rising, single point]
AC50 [3]: 6.31 µM [falling, single point]

O=C(CSc1cn(CC(=O)N2CCCC2)c2ccccc12)Nc1ccccc1C(F)(F)F
AC50 [1]: 39.8 µM [falling, single point]

Cc1cccc(Cn2c(=O)n(CC3CCC(C(=O)N4CCC(C)CC4)CC3)c(=O)c3sccc32)c1 (stereo unspecified)
AC50 [1]: 31.6 µM [falling, single point]

CC(C)(C)OC(=O)N[C@@H](Cc1ccccc1)c1nnc(S(=O)(=O)Cc2cccc(F)c2)o1
AC50 [2]: 6.31 µM [rising, single point]
AC50 [3]: 7.94 µM [falling, partial curve]

Cc1ccc(CNC(=O)CN(c2cc(C)cc(C)c2)S(=O)(=O)c2c(C)noc2C)cc1
AC50 [1]: 3.16 µM [falling, full curve, poor fit]

Cc1nc2cc(-c3ccccc3)nn2c(C)c1CCC(=O)NCc1cccc(Cl)c1
AC50 [1]: 12.6 µM [falling, partial curve]

COC(=O)c1ccc(OCC(=O)Nc2nn(-c3ccccc3)nc2C(N)=O)cc1
AC50 [2]: 2.51 µM [rising, partial curve]
AC50 [3]: 3.16 µM [rising, partial curve]

COC(=O)c1ccccc1NC(=O)c1ccc2c(Cl)c3c(nc2c1)CCCC3
AC50 [1]: 3.98 µM [falling, full curve]

From PubChem BioAssay AID445 (National Center for Advancing Translational Sciences (NCATS), 2006)
